{"source": "PubChem BioAssay AID602196 | INSERM – 2012", "aim": "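Genes whose knock-down alters cisplatin killing of lung cancer cells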", "system": "human A549 lung cancer cells", "reagents": "siRNA pair against human genes", "time to read-out": "48 h transfection before cisplatin; time from cisplatin to read-out not stated", "treatment": "cisplatin at a dose killing half of control-siRNA cells; exact dose and duration not given", "measurement": "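Cisplatin cell death as a shift from the 50% death seen with control siRNA; siRNAs toxic or growth-blocking alone scored 0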", "reading the numbers": "two-siRNA summed score (-2 to +2): higher = both siRNAs protect from cisplatin killing; -2 means both sensitise; mean protection from cisplatin (shift in death): higher = protection from cisplatin killing", "rule for the call": "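Each siRNA scores 0 if harmful alone by LDH or WST-1, otherwise +1 if it reduces and -1 if it increases cisplatin killing; a gene is active when both siRNAs agree (sum +2 or -2)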", "calls": "active = both siRNAs shift cisplatin killing the same way; inactive = no consistent shift, or siRNA harmful alone", "note": "Shown is an unselected part of about 23,000 reagents. In the full data, 455 (2%) are marked active. 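Active includes both protection and sensitisation; some change values fall well beyond the stated -50 to +50 range.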 Further read-outs or replicates are left out here. Not stated in the record: the amount of reagent."}
{"gene":"NSMCE1","two-siRNA summed score (-2 to +2)":0,"mean protection from cisplatin (shift in death) (%)":-0.7,"activity call":"inactive"}
{"gene":"LOC402675","two-siRNA summed score (-2 to +2)":0,"mean protection from cisplatin (shift in death) (%)":12.1,"activity call":"inactive"}
{"gene":"THAP3","two-siRNA summed score (-2 to +2)":0,"mean protection from cisplatin (shift in death) (%)":2.4,"activity call":"inactive"}
{"gene":"ZNF492","two-siRNA summed score (-2 to +2)":1,"mean protection from cisplatin (shift in death) (%)":8.4,"activity call":"inactive"}
{"gene":"KRT18","two-siRNA summed score (-2 to +2)":0,"mean protection from cisplatin (shift in death) (%)":9.7,"activity call":"inactive"}
{"gene":"ZDHHC2","two-siRNA summed score (-2 to +2)":0,"mean protection from cisplatin (shift in death) (%)":9.6,"activity call":"inactive"}
{"gene":"ZFAND2B","two-siRNA summed score (-2 to +2)":0,"mean protection from cisplatin (shift in death) (%)":3.7,"activity call":"inactive"}
{"gene":"PPP1R35","two-siRNA summed score (-2 to +2)":0,"mean protection from cisplatin (shift in death) (%)":4.3,"activity call":"inactive"}
{"gene":"AMY2B","two-siRNA summed score (-2 to +2)":1,"mean protection from cisplatin (shift in death) (%)":19.6,"activity call":"inactive"}
{"gene":"LONP2","two-siRNA summed score (-2 to +2)":0,"mean protection from cisplatin (shift in death) (%)":-6.6,"activity call":"inactive"}
{"gene":"FCGR2B","two-siRNA summed score (-2 to +2)":1,"mean protection from cisplatin (shift in death) (%)":12.1,"activity call":"inactive"}
{"gene":"LOC441793","two-siRNA summed score (-2 to +2)":0,"mean protection from cisplatin (shift in death) (%)":1.3,"activity call":"inactive"}
{"gene":"LOC400705","two-siRNA summed score (-2 to +2)":0,"mean protection from cisplatin (shift in death) (%)":0.2,"activity call":"inactive"}
{"gene":"CNTF","two-siRNA summed score (-2 to +2)":-1,"mean protection from cisplatin (shift in death) (%)":-5.8,"activity call":"inactive"}
{"gene":"WWC1","two-siRNA summed score (-2 to +2)":0,"mean protection from cisplatin (shift in death) (%)":0.8,"activity call":"inactive"}
{"gene":"TAS2R19","two-siRNA summed score (-2 to +2)":-1,"mean protection from cisplatin (shift in death) (%)":-8.6,"activity call":"inactive"}
{"gene":"LOC440696","two-siRNA summed score (-2 to +2)":0,"mean protection from cisplatin (shift in death) (%)":8.7,"activity call":"inactive"}
{"gene":"C9orf50","two-siRNA summed score (-2 to +2)":0,"mean protection from cisplatin (shift in death) (%)":-12.3,"activity call":"inactive"}
{"gene":"LOC440133","two-siRNA summed score (-2 to +2)":0,"mean protection from cisplatin (shift in death) (%)":15,"activity call":"inactive"}
{"gene":"CNOT3","two-siRNA summed score (-2 to +2)":0,"mean protection from cisplatin (shift in death) (%)":1.9,"activity call":"inactive"}
{"gene":"BMS1","two-siRNA summed score (-2 to +2)":1,"mean protection from cisplatin (shift in death) (%)":6.2,"activity call":"inactive"}

Ordered by “two-siRNA summed score (-2 to +2)” (low to high): 3 of the entries above
{"gene":"KRT18","two-siRNA summed score (-2 to +2)":0,"mean protection from cisplatin (shift in death) (%)":9.7,"activity call":"inactive"}
{"gene":"ZDHHC2","two-siRNA summed score (-2 to +2)":0,"mean protection from cisplatin (shift in death) (%)":9.6,"activity call":"inactive"}
{"gene":"ZNF492","two-siRNA summed score (-2 to +2)":1,"mean protection from cisplatin (shift in death) (%)":8.4,"activity call":"inactive"}

Next reagents:
{"gene":"SP6","two-siRNA summed score (-2 to +2)":0,"mean protection from cisplatin (shift in death) (%)":11.9,"activity call":"inactive"}
{"gene":"LOC390606","two-siRNA summed score (-2 to +2)":1,"mean protection from cisplatin (shift in death) (%)":18,"activity call":"inactive"}
{"gene":"PSMB2","two-siRNA summed score (-2 to +2)":0,"mean protection from cisplatin (shift in death) (%)":-0.5,"activity call":"inactive"}
{"gene":"MYH15","two-siRNA summed score (-2 to +2)":1,"mean protection from cisplatin (shift in death) (%)":9.8,"activity call":"inactive"}
{"gene":"RABEPK","two-siRNA summed score (-2 to +2)":0,"mean protection from cisplatin (shift in death) (%)":-13.3,"activity call":"inactive"}
{"gene":"COL16A1","two-siRNA summed score (-2 to +2)":0,"mean protection from cisplatin (shift in death) (%)":11.6,"activity call":"inactive"}
{"gene":"SRARP","two-siRNA summed score (-2 to +2)":0,"mean protection from cisplatin (shift in death) (%)":8.6,"activity call":"inactive"}
{"gene":"LOC441066","two-siRNA summed score (-2 to +2)":0,"mean protection from cisplatin (shift in death) (%)":9.1,"activity call":"inactive"}
{"gene":"LOC400742","two-siRNA summed score (-2 to +2)":0,"mean protection from cisplatin (shift in death) (%)":6.9,"activity call":"inactive"}
{"gene":"CEP72","two-siRNA summed score (-2 to +2)":-1,"mean protection from cisplatin (shift in death) (%)":-13.4,"activity call":"inactive"}
{"gene":"PLXNA2","two-siRNA summed score (-2 to +2)":0,"mean protection from cisplatin (shift in death) (%)":25.1,"activity call":"inactive"}
{"gene":"MSRB1P1","two-siRNA summed score (-2 to +2)":0,"mean protection from cisplatin (shift in death) (%)":2.5,"activity call":"inactive"}
{"gene":"YARS1","two-siRNA summed score (-2 to +2)":0,"mean protection from cisplatin (shift in death) (%)":-2.9,"activity call":"inactive"}
{"gene":"H4C14","two-siRNA summed score (-2 to +2)":0,"mean protection from cisplatin (shift in death) (%)":8.7,"activity call":"inactive"}
{"gene":"SDC4","two-siRNA summed score (-2 to +2)":0,"mean protection from cisplatin (shift in death) (%)":-3.1,"activity call":"inactive"}
{"gene":"LOC440487","two-siRNA summed score (-2 to +2)":0,"mean protection from cisplatin (shift in death) (%)":26.6,"activity call":"inactive"}
{"gene":"ZNF32","two-siRNA summed score (-2 to +2)":0,"mean protection from cisplatin (shift in death) (%)":-1.5,"activity call":"inactive"}
{"gene":"LOC440519","two-siRNA summed score (-2 to +2)":0,"mean protection from cisplatin (shift in death) (%)":10.8,"activity call":"inactive"}
{"gene":"RXRB","two-siRNA summed score (-2 to +2)":1,"mean protection from cisplatin (shift in death) (%)":6.8,"activity call":"inactive"}
